Assay results published in patent US11724980B2, “Quinones having high capacity retention for use as electrolytes in aqueous redox flow batteries” (President and Fellows of Harvard College, priority 2018, dated 2023).

Experiments:
[1] = Cyclic voltammetry on glassy carbon electrode; assay type: physicochemical; conditions: difference in CV-obtained redox potentials between DBEAQ and potassium ferri/ferrocyanide
Procedure: Glassy carbon was used as the working electrode for all three-electrode CV tests. RDE experiments were conducted using a Pine Instruments Modulated Speed Rotator AFMSRCE equipped with a 5 mm diameter glassy carbon working electrode, a Ag/AgCl reference electrode (BASi, pre-soaked in 3 M NaCl solution), and a graphite counter electrode. The electrode was rotated at a specific speed while the voltage was linearly swept from −0.4 to −0.11 V vs. Ag/AgCl (FIG. 4A). […].
A second CV experiment was performed in which 2,6-DBEAQ was dissolved in pH 14 KOH solution at a concentration of 2 mM. CV measurements were plotted in FIG. 4C. The standard equilibrium potential was determined to be −0.49 V vs. SHE. The separation between the peaks in the CV curves was 42 mV, indicating fairly rapid and reversible electrochemical reactions at the surface of the electrodes.

[2] = Full cell cycling against potassium ferro/ferricyanide posolyte; conditions: for Cell Voltage: OCV at 50% SOC from full-cell tests, potassium ferrocyanide-based posolyte
Procedure: Full cell cycling (i.e. with a ferro/ferricyanide-based posolyte) was performed with the same flow cell hardware but with a FUMASEP® E-620(K) membrane due to its high conductivity and low permeability of DBEAQ and ferricyanide compared to other membranes. For studies at pH 14, the posolyte volume was 30 mL, and its composition, when assembled, was 0.20 M potassium ferrocyanide, 0.08 M potassium ferricyanide, and 1 M KOH. The negolyte was prepared by dissolving 0.1 M 2,6-DBEAQ in its oxidized form in 1.2 M KOH solution, resulting in 0.1 M 2,6-DBEAQ, 1.2 M K+, and 1 M OH^− electrolyte solution. For studies at pH 12, both electrolytes comprised 10 mM OH^−; the pH was checked both with a pH meter and pH paper and adjusted where necessary. For all full cell studies, the negolyte was assembled in the fully discharged state. Galvanostatic cycling was performed at ±0.1 A/cm^2 at room temperature, with voltage limits of 0.6 and 1.4 V. To obtain the polarization curves, the cell was first charged to the desired state of charge and then polarized via linear sweep voltammetry at a rate of 100 mV/s. […] Electrochemical impedance spectroscopy (EIS) was performed at SOCs between 10 and 100% at open-circuit potential with a 10 mV perturbation and with frequency ranging from 1 to 300,000 Hz.
In order to avoid temporal variations in accessible capacity during full cell cycling caused by changes in membrane resistance^8, each galvanostatic half-cycle was finished with a potential hold at the potential limit (1.4 V after charge, 0.6 V after discharge), until the magnitude of the current density fell below 2 mA/cm^2. Over a 5-day test period, a capacity fade rate of 0.05%/day or 0.001%/cycle was observed (FIG. 21A). […] It has been shown that capacity retention rates using both cycling protocols yield virtually identical results.^8
A flow battery was constructed using a solution of 2,6-DBEAQ produced as described in Example 1. Cell hardware from Fuel Cell Tech. (Albuquerque, N. Mex.) was used to assemble a zero-gap flow cell configuration, similar to a previous report (supplemental information in the paper by K. Lin et al. Science 349, 1529 (2015)). Pyrosealed POCO graphite flow plates with serpentine flow patterns were used for both electrodes. […] A sheet of pretreated NAFION® 212 membrane served as the ion-selective membrane between the carbon electrodes. Pretreatment of the NAFION® 212 membrane was performed by first heating it at 80° C. in de-ionized water for 20 minutes and then soaking in 5% hydrogen peroxide solution at room temperature for 35 minutes. These pre-treated membranes were stored in 0.1 M KOH solution at room temperature. The outer portion of the space between the electrodes was gasketed by Teflon sheets with the area over the electrodes cut out. Torque applied during cell assembly was 90 lb-in on each of 8 bolts. The electrolytes were fed into the cell through PFA tubing, at a rate <60 ml/min controlled by Cole-Parmer Micropump gear pumps. The cell was run inside a nitrogen-filled glove box with an O2 partial pressure of about 1 to 2 ppm. Cell polarization measurements, impedance spectroscopy, and charge-discharge cycling were performed using a Biologic VSP 300 potentiostat. The posolyte volume and composition when assembled was 30 mL of 0.22 M potassium ferrocyanide, 0.02 M potassium ferricyanide and 1 M KOH. The capacity-limiting negolyte was prepared by dissolving 1.2 mmoles of 2,6-DBEAQ (0.5 g) in its oxidized form in 1.2 M KOH solution (6 mL) resulting a 0.2 molar 2,6-DBEAQ solution.
For a full cell study, the electrolytes were assembled in the fully discharged state, deaerated and brought into a nitrogen-filled glovebox. The oxygen level was maintained at <2 ppm during cycling. Galvanostatic cycling was performed at ±0.1 A/cm^2 at room temperature, with voltage limits of 0.6 and 1.4 V, controlled by a Gamry 30K Booster potentiostat.
The pH of both sides was adjusted to 9 by adding a trace of KOH.

In the case of `O=C(O)CCCOc1ccc2c(c1OCCCC(=O)O)C(=O)c1ccccc1C2=O` [1,2-DBEAQ], the “Cell Voltage” value [1] is reported as 1.04 V.
In the case of `O=C(O)CCCOc1cccc2c1C(=O)c1c(OCCCC(=O)O)cccc1C2=O` [1,8-DBEAQ], the “Cell Voltage” value [1] is reported as 1.01 V.
For `O=C([O-])CCCOc1ccc2c(c1)C(=O)c1ccc(OCCCC(=O)[O-])cc1C2=O.[K+].[K+]` [2,6-DBEAQ, 4,4′-((9,10-anthraquinone-2,6-diyl)dioxy)dibutyric acid], the current efficiency ([2]; 0.1 M negolyte, pH 14, 4-day galvanostatic cycling) was about 99.94%, the open-circuit voltage ([2]; 0.2 molar negolyte, 1 M KOH, NAFION® 212, 50% state of charge) was 1.02 V and the “open-circuit voltage (OCV)” value ([2]; 0.5 M, pH 12, 10% SOC) was 0.97 V. For the same compound, the “open-circuit voltage (OCV)” value ([2]; 0.5 M, pH 12, 50% SOC) was 1.05 V, the “open-circuit voltage (OCV)” value ([2]; 0.5 M, pH 12, 100% SOC) was 1.12 V and the “peak galvanic power density” value ([2]; 0.5 M, pH 12, 100% SOC) was 0.24 W/cm^2. For the same compound, the “total loss over testing period” value ([2]; 6-day testing period, full cell) was under 0.5%, the “Cell Voltage” value [2] was 1.05 V and the capacity fade rate ([2]; parallel test, potentiostatic cycle after every 20 galvanostatic cycles) was 0.04 %/day.
With `O=C1c2ccc(O)cc2C(=O)c2ccc(O)cc21` [2,6-DHAQ, 2,6-dihydroxyanthraquinone] the “Cell Voltage” value [2] was 1.20 V.
In the case of `O=C1c2ccc(OCCCP(=O)(O)O)cc2C(=O)c2ccc(OCCCP(=O)(O)O)cc21` [DPPEAQ, (((9,10-dioxo-9,10-dihydroanthracene-2,6-diyl)bis(oxy))bis(propane-3,1-diyl))bis(phosphonic acid)], the discharge capacity fade ([2]; 0.1 M in 1 M KCl, pH 9, 16 cycles (9.5 hours)) is reported as “did not fade”, the “current efficiency after the first cycle” value ([2]; 0.1 M in 1 M KCl, pH 9, ±20 mA/cm^2, 16 cycles) is reported as “exceeded 99%” and the open-circuit potential ([2]; 0.5 M, pH 9, 10% SOC) is reported as 0.95 V. For the same compound, the peak power density ([2]; 0.5 M, pH 9, 10% SOC) was 0.073 W cm^−, the OCV ([2]; 0.5 M, pH 9, 50% SOC) was “approximately 1.02 V” and the open-circuit potential ([2]; 0.5 M, pH 9, 90% SOC) was 1.05 V. For the same compound, the peak power density ([2]; 0.5 M, pH 9, 90% SOC) was 0.160 W cm^−, the “average Coulombic efficiency” value ([2]; 0.5 M, pH 9, 480 cycles) was “greater than 99%” and the capacity fade rate ([2]; 0.5 M, pH 9, 480 cycles) was 0.00036 %/cycle. For the same compound, the average capacity retention ([2]; 0.5 M, pH 9, 480 cycles, 12.3 days, 100 mA cm^−2) was 100 %/cycle and the capacity fade rate ([2]; 0.5 M, pH 9, 12.3 days) was 0.014 %/day.
